The list shows a part of the results. Further columns of the screen follow, without active or inactive calls. Compounds called inactive in the main read-out are mostly missing here. The note in brackets gives the kind of curve behind each potency; many fits are weak.
Experiment: qHTS Assay for Lipid Storage Modulators in Drosophila S3 Cells;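 on cell number change: cells counted by Cell Tracker Red CMTPX staining in the red channel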
Details: BODIPY lipid droplet fluorescence, 18-24 h; for cell number change: measured here: cell count max response, cells fed with added oleic acid
How it was run: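 Drosophila S3 cells got compounds at several concentrations plus oleic acid (400 uM solution). Laser-scanning cytometry with 488 nm excitation read lipid droplets at 500-530 nm and cells at 575-640 nm. Percent activity was relative to 20 uM Triacsin C.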

[1] = measured here: lipid fluorescence (Fed channel) AC50, cells fed with added oleic acid
[2] = measured here: cell number channel AC50, cells fed with added oleic acid

SMILES	cell number change	AC50 [1]	AC50 [2]
NC(=O)C1CCCN1 (stereo not given)	-21.4%	18.4 µM [falling, partial curve, poor fit]	–
CC(C)CNC(=O)COC(=O)/C=C/c1ccccc1[N+](=O)[O-]	-0.353%	0.92 µM [falling, full curve]	–
CC1Cc2ccccc2N1C(=O)CSc1nc2ccccc2o1 (stereo not given)	13.7%	18.4 µM [rising, partial curve, poor fit]	–
COCCCn1c(SCC(=O)NC2CCCCC2)nnc1-c1ccco1	-2.63%	–	–
C=CCNC(NC(=O)c1ccccc1)(C(=O)OCC)C(F)(F)F (stereo not given)	-31%	32.6 µM [falling, partial curve]	25.9 µM [falling, partial curve, poor fit]
CC(Oc1ccc(F)cc1)C(=O)Nc1ccc2ccccc2c1 (stereo not given)	-21.4%	–	–
COc1ccc(/C=C/c2nc(S(=O)(=O)c3ccccc3)c(NCCCN(C)C)o2)cc1OC	-13.4%	2.59 µM [rising, partial curve]	–
NC(=O)c1c(NC(=O)Cc2cccs2)sc2c1CCC2	4.8%	3.26 µM [rising, partial curve]	2.31 µM [rising, partial curve]
O=C(CSc1nnc(-c2ccco2)o1)c1ccc([N+](=O)[O-])cc1	59.5%	0.58 µM [rising, single point]	20.6 µM [rising, single point]
CN(C)c1ccc(-c2nnc(-c3ccc(S(=O)(=O)C(F)F)cc3)o2)cc1	18.2%	1.84 µM [rising, partial curve]	–
COc1ccc(S(=O)(=O)NCCS(=O)(=O)N2CCN(c3ccccc3)CC2)cc1	28.2%	23.1 µM [rising, single point]	–
COc1ccc2ccccc2c1/C=N/Nc1ccc(Cl)c(C(=O)O)c1	1.21%	2.31 µM [rising, full curve]	–
O=C(Nc1ccccc1)c1ccccc1CC[N+](=O)[O-]	23.9%	–	–
COc1ccc(NC(=O)CSc2nccn2Cc2ccc(F)cc2)cc1	18.1%	6.51 µM [rising, partial curve, poor fit]	–
COc1ccc(CCNC(=O)c2cc([N+](=O)[O-])ccc2N2CCOCC2)cc1	15.5%	–	1.84 µM [rising, partial curve]
Cc1cc(-c2c(C)n([O-])c(C)c(C)[n+]2=O)ccc1F	1.03%	2.31 µM [rising, partial curve]	–
Cc1ccnc(NC(=O)c2cc(S(=O)(=O)N3CCCCC3)ccc2Cl)c1	-0.233%	–	–
Cc1ccc(SCC(=O)OCC(=O)NC2CCCCCC2)cc1	10.9%	18.4 µM [falling, single point]	–
CCCCNC(=O)CSc1nc(Cc2ccccc2)nc2ccccc12	-13.6%	0.13 µM [rising, partial curve, poor fit]	–
CCOC(=O)Nc1ccc(C)cc1C	2.06%	–	–

Exported in markdown: entries from further up

| SMILES | cell number change | AC50 [1] | AC50 [2] |
| --- | --- | --- | --- |
| NC(=O)c1c(NC(=O)Cc2cccs2)sc2c1CCC2 | 4.8% | 3.26 µM [rising, partial curve] | 2.31 µM [rising, partial curve] |
| O=C(CSc1nnc(-c2ccco2)o1)c1ccc([N+](=O)[O-])cc1 | 59.5% | 0.58 µM [rising, single point] | 20.6 µM [rising, single point] |

Next part

SMILES	cell number change	AC50 [1]	AC50 [2]
COc1cccc(CNC(=O)CN2C(=O)c3ccccc3S2(=O)=O)c1	-59.4%	–	29.1 µM [falling, single point]
O=C(C[n+]1ccc(C(=O)c2ccccc2)cc1)Nc1ccc(C(F)(F)F)cc1	15.4%	–	–
Cc1cc(C(=O)Nc2ccc(S(=O)(=O)N3CCOCC3)cc2)ccc1[N+](=O)[O-]	-30.7%	–	11.6 µM [falling, single point]
CC(C)(C)c1ccc(C(=O)NC(=S)Nc2sc3c(c2C#N)CCC3)cc1	21.5%	0.92 µM [rising, full curve]	–
COc1cccc(C(=O)Nc2cccc(OCC(=O)O)c2)c1	-36.5%	1.03 µM [falling, full curve]	1.3 µM [falling, full curve]
CCc1nc2ccc(C(=O)Nc3nnc(C)s3)cc2nc1CC	17.7%	–	1.16 µM [rising, single point]
CCOc1ccc(-c2cc(C(=O)N/N=C/c3cccnc3)c3ccccc3n2)cc1	22.9%	16.4 µM [falling, single point]	–
Nn1cc(-c2ccccc2)nc1SCC(=O)N1CCN(S(=O)(=O)c2ccccc2)CC1	–	1.84 µM [rising, partial curve]	1.84 µM [rising, partial curve]
CN1CCN(CCCCC(=O)c2ccccc2)CC1	-13.9%	5.8 µM [falling, partial curve, poor fit]	–
Cc1cc(C)cc(N(CC(=O)NC2CCCC2)C(=O)CCC(=O)Nc2cc(C)ccn2)c1	1.32%	–	–
COc1ccc(C)cc1NC(=O)CCc1ccc(S(=O)(=O)N2CCOCC2)cc1	-1.88%	29.1 µM [falling, single point]	–
Cc1ccccc1NC1=C/C(=N\S(=O)(=O)c2ccc(C(=O)O)cc2)c2ccccc2C1=O	-29.5%	6.51 µM [rising, single point]	–
CCCC1(C(=O)OCC)NC(c2cc(OC)c(OC)c(OC)c2)C2C(=O)N(CC)C(=O)C21 (stereo not given)	20.6%	7.31 µM [falling, single point]	–
CCOP(=O)(OCC)c1nc(-c2ccc(OC)cc2)oc1N1CCOCC1	-0.425%	0.731 µM [falling, full curve, poor fit]	–
NC(=O)CS(=O)(=O)c1nc2ccccc2n1Cc1ccccc1F	100%	18.4 µM [rising, single point]	29.1 µM [rising, single point]
Cc1ccc(C(=O)NCc2ccc(F)cc2)cc1NC1=NC2CS(=O)(=O)CC2S1 (stereo not given)	5.69%	–	–
O=[N+]([O-])c1ccc(N/N=C\c2ccccc2OCc2ccccc2)cc1	–	0.651 µM [rising, full curve]	–
CCOC(=O)CSc1nc(N2CCOCC2)c2c(c1C#N)CC(C(C)C)OC2 (stereo not given)	-31%	23.1 µM [falling, partial curve]	6.51 µM [rising, single point]
CC1CC(C)CN(CCCNC(=O)CCNC(=O)Cn2cnc3ccccc3c2=O)C1 (stereo not given)	5.42%	1.64 µM [falling, partial curve, poor fit]	–
